These results are taken from patent US5262521A (SRI International, priority 1991, dated 1993).

HELM strings list residues between dots; [ac] is acetyl, [am] amide, other brackets name non-standard units.

The data set in a line: general procedure: Boc solid-phase peptide synthesis; DCC; 1-hydroxybenzotriazole added for recouplings and Boc-asparagine. To be noted: whole synthesis, overall.
“PEPTIDE1{S.L.R.R.S.S.[dA].G.[dA].N.S.[dF].R.Y.[am]}$$$$V2.0” returned an isolated yield of 56%. For “PEPTIDE1{S.L.R.R.S.S.[dA].G.[dA].N.C.F.R.Y.[am]}$$$$V2.0” the value was 13.6%; for “PEPTIDE1{S.L.R.R.S.S.[dA].G.[dA].N.C.[dF].R.Y.[am]}$$$$V2.0”, 42.3%.

“PEPTIDE1{S.L.R.R.S.S.[dA].G.[dA].N.C.[dF].R.[am]}$$$$V2.0”: the isolated yield amounted to 6.0%.

Take “PEPTIDE1{S.L.R.R.S.S.[dA].G.[dA].N.S.F.R.Y.[am]}$$$$V2.0”: the isolated yield amounted to 2.4%.

As for “PEPTIDE1{S.L.R.R.S.S.[dA].G.[dA].N.[dS].F.R.Y.[am]}$$$$V2.0”, the isolated yield worked out at 37.6%.
